Experiment [1] concerns the target T1, GST-WWOX (full length wild-type WWOX) (human) (UniProt Q9NZC7).
T1 sequence: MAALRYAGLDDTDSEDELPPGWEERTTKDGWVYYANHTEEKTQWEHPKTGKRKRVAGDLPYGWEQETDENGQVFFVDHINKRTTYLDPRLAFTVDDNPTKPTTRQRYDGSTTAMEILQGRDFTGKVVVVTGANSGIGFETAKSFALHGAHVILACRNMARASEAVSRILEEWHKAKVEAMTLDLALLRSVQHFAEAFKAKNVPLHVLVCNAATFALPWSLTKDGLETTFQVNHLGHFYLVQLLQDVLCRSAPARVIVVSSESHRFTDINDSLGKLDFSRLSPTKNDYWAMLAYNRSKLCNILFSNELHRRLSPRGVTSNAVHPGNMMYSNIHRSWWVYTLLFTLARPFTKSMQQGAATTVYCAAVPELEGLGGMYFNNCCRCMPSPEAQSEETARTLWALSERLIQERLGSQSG
The experiment is described as follows: pull-down; 10 ug purified GST-fusion protein with Glutathione Sepharose 4B added to 600 ug total lysate of HEK293T cells transfected with Myc-SEC23IP or Myc-SCAMP3 (50 mM Tris pH 7.5, 150 mM NaCl, 1% Triton X-100), overnight at 4 C; anti-Myc blot; only the target purified.

Another experiment deals with T2, GFP-WWOX (human) (UniProt Q9NZC7).
T2 sequence: T1 sequence
Put plainly: co-IP; HEK293T co-transfected with Myc-DDK-tagged partner and GFP-WWOX, lysed after 36 h (1% Triton X-100, 150 mM NaCl, Hepes pH 7.4); IP with anti-Myc or anti-GFP (rabbit IgG control), Protein A/G agarose 16 h at 4 C; blot with anti-Myc or anti-WWOX.

For the next experiment, the target named is T3, Myc-DDK-SEC23IP (UniProt Q9Y6Y8).
T3 sequence: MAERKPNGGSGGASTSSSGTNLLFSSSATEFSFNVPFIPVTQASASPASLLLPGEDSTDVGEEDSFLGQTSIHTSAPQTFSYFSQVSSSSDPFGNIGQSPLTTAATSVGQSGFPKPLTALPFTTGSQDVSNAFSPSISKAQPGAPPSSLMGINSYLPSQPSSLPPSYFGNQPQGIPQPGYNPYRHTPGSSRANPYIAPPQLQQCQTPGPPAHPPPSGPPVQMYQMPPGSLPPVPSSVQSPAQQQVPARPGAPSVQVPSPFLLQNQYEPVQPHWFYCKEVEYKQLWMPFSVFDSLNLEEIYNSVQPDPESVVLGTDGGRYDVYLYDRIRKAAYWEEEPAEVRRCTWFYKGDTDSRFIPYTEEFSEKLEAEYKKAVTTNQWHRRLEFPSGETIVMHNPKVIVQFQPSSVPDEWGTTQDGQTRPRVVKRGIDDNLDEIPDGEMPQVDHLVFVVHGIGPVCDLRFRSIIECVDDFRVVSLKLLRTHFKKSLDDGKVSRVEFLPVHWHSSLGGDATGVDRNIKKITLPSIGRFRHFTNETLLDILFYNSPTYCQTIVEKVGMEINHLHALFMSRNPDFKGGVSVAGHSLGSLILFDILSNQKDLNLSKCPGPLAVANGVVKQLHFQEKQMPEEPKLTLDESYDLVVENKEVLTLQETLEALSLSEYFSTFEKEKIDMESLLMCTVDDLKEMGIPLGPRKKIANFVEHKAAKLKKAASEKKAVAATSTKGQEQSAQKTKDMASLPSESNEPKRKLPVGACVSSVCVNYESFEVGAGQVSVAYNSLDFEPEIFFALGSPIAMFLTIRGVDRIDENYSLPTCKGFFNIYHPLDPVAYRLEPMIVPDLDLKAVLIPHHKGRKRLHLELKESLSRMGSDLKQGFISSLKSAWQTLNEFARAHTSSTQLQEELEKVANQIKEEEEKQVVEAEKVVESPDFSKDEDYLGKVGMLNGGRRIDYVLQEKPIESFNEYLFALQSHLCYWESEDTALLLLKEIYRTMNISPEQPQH
The experiment is described as above.

For another experiment, the target named is T4, Myc-DDK-VOPP1 (UniProt Q96AW1).
T4 sequence: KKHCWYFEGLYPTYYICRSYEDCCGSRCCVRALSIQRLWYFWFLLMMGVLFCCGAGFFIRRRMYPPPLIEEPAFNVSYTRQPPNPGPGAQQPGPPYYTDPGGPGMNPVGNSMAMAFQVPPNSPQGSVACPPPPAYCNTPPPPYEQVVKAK
The experiment is described as above.

A further experiment concerns the target T5, Myc-DDK-SCAMP3 (UniProt O14828).
T5 sequence: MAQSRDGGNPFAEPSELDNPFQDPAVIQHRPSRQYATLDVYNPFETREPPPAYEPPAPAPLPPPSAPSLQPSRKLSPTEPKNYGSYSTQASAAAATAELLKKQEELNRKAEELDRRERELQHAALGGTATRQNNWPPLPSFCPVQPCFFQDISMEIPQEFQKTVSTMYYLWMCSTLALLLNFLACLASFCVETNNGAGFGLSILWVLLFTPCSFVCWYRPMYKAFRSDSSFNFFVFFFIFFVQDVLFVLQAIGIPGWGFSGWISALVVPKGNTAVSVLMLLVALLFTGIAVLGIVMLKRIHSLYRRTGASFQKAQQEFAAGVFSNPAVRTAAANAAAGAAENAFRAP
The experiment is described as above.

Consider 4 molecules from paper PMC6300487.

These are yes or no findings as the source states them, for the method shown. In cells and extracts the contact can be indirect. Some results given as binding are weak or reduced against the parent protein; the word gives no strength. Where a sequence is shown, tags or fusion partners need not be part of it.

B1: Myc-DDK-SCAMP3 (protein, UniProt O14828 1-347)
chain: T5 sequence
With B1, the binding entry (in experiment [1]; with GFP-WWOX (human)) was “binds” throughout.

B2: Myc-DDK-VOPP1 (protein, UniProt Q96AW1 23-172)
chain: T4 sequence
On to B2, for which, in the experiment with GFP-WWOX (human), the binding result is on record as “binds”.

B3: GFP-WWOX (protein, UniProt Q9NZC7 1-414)
chain: T1 sequence
For B3, the binding result with Myc-DDK-SEC23IP, with Myc-DDK-VOPP1 and with Myc-DDK-SCAMP3 was “binds” each time.

B4: Myc-DDK-SEC23IP (protein, UniProt Q9Y6Y8 1-1000)
chain: T3 sequence
Take B4: the binding result (in experiment [1]; with GFP-WWOX (human)) was “binds” in each case.
